Experimental data: PubChem BioAssay AID1259308 (NCATS, 2017)

- Assay: 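Knock-downs that increase output of a recombinant reporter protein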 (primary screen)
- Cell system: human HEK293 embryonic kidney cells stably expressing firefly luciferase (HEK-CMV-Luc2-Hygro)
- Reagents: single siRNA against human genes, 0.8 pmol siRNA per well
- Timing: 72 h
- Detection: 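Reporter luminescence and viable-cell signal on separate replicate plates, given as percent of non-targeting control and median/MAD z-scores, plus per-cell luciferase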
- Reading the numbers: total luciferase, z-score: higher = more reporter protein produced
- Active means: 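Active when the median/MAD z-score for overall luciferase is greater than 3; a gene was taken forward for validation with new siRNAs if at least two of its three siRNAs passed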
- Meaning of the calls: active = raised luciferase; inactive = no rise
The deposit covers about 59,000 reagents; this is a part drawn at random. Of all reagents, about 1,510 (2.6%) are marked active. 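Calls use total luciferase alone and ignore viability, so some active siRNAs may act by altering cell number.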 Entries without a mark were called inactive. Further read-outs or replicates are left out here.

total luciferase, z-score, by gene and reagent
RNPC3 (GeneID 55599): SID160743861 2.17; SID160743862 0.193; SID160743863 0.522
H2BW2 (GeneID 286436): SID160763852 1.14; SID160763853 0.344; SID160763854 -0.204
BCL9 (GeneID 607): SID160723558 0.909; SID160723569 -2.77; SID160723580 -0.403
RNF187 (GeneID 149603): SID160732562 1.12; SID160758848 2.96; SID160758850 0.739
SLC30A5 (GeneID 64924): SID160729959 1.13; SID160730062 -0.741; SID160730167 -0.0994

Sorted by “total luciferase, z-score” (descending): 5 of the entries above.
gene	PubChem SID	total luciferase, z-score
RNF187 (GeneID 149603)	SID160758848	2.96
SLC30A5 (GeneID 64924)	SID160729959	1.13
RNF187 (GeneID 149603)	SID160732562	1.12
RNF187 (GeneID 149603)	SID160758850	0.739
BCL9 (GeneID 607)	SID160723580	-0.403

Continued.
total luciferase, z-score, by gene and reagent
DLL1 (GeneID 28514): SID160738849 1.94; SID160738850 0.202; SID160738851 1.75
RHCG (GeneID 51458): SID160740841 -0.435; SID160740842 2.36; SID160740844 -0.547
S1PR5 (GeneID 53637): SID160741450 -0.676; SID160741451 -0.244; SID160741452 1.56
EPHX2 (GeneID 2053): SID160761150 -0.105; SID160761161 -0.415; SID160761169 0.0267
NSDHL (GeneID 50814): SID160739724 -0.344; SID160739725 0.292; SID160739726 1.12
TNFRSF19 (GeneID 55504): SID160743719 -0.784; SID160743720 -0.456; SID160743721 1.67
RWDD4 (GeneID 201965): SID160761037 0.0653; SID160761038 -0.906; SID160761039 0.221
B3GLCT (GeneID 145173): SID160758200 0.535; SID160758201 -0.109; SID160758202 2.99
